Some of the results follow.
Columns and labels:
Assay in all cases: log2 fold change, soluble protein after heating vs DMSO (PISA); higher = thermal stabilisation; K562 cells, 10 uM, 30 min; active = over 0.2 and 3.5 SD of the protein, either way, in both replicates (recomputed)
[1] = compound: CS(=O)(=O)c1ccc(-c2cnc(N)c(C(=O)Nc3ccccc3)n2)cc1
Summary of the method: (§1)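 Thermal stability values are relative to control samples and come from duplicates. They are expressed as log2 fold changes. For measurement, K562 cells (2×10^6 cells/mL) received 10 μM compound for 30 min, and aliquots were heated for 3 min over 48°C-58°C, pooled, and extracted at 4°C in PBS with 0.5% NP-40. Soluble protein, the supernatant after 21,000xg for 90 min, was quantified by TMTpro 16plex LC-MS/MS with equalised channel sums.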

By UniProt entry, the sequences of proteins in these tests, tags left out. Where a name states a change or a piece, a line headed by the entry shows the natural chain unless it says otherwise.
UniProt Q9NNW5: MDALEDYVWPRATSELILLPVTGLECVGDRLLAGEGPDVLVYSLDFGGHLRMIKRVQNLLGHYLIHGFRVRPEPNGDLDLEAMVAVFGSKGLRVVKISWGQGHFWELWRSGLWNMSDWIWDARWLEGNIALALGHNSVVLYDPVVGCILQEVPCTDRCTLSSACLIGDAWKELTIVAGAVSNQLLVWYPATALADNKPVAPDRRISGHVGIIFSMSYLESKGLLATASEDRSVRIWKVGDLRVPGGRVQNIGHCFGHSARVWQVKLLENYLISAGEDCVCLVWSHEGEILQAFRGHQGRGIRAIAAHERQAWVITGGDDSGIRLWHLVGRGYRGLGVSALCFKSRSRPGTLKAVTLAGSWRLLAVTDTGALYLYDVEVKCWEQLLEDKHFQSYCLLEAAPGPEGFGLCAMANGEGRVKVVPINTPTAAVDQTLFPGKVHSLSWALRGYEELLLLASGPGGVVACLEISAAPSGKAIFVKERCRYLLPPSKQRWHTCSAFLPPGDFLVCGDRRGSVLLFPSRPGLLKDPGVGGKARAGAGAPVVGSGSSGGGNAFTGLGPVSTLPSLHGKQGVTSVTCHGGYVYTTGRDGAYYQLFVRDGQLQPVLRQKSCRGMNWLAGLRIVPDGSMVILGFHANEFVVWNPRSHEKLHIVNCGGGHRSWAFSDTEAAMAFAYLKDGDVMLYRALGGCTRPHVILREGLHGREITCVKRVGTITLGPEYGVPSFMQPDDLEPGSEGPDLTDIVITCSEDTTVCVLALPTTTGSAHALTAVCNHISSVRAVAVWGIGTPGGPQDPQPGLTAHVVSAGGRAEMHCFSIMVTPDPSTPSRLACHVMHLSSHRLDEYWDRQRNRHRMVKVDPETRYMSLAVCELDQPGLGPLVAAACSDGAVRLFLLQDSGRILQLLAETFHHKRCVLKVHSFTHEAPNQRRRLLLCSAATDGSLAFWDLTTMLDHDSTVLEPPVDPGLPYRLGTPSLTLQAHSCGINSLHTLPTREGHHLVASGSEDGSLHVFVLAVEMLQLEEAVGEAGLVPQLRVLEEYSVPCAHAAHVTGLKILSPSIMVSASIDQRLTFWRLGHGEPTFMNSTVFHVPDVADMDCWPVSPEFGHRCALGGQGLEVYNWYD
UniProt O00258: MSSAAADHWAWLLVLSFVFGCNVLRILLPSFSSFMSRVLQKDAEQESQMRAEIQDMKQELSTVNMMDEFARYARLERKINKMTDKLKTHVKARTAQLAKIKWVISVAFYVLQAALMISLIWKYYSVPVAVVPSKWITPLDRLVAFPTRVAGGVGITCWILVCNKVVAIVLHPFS
UniProt Q96JC1: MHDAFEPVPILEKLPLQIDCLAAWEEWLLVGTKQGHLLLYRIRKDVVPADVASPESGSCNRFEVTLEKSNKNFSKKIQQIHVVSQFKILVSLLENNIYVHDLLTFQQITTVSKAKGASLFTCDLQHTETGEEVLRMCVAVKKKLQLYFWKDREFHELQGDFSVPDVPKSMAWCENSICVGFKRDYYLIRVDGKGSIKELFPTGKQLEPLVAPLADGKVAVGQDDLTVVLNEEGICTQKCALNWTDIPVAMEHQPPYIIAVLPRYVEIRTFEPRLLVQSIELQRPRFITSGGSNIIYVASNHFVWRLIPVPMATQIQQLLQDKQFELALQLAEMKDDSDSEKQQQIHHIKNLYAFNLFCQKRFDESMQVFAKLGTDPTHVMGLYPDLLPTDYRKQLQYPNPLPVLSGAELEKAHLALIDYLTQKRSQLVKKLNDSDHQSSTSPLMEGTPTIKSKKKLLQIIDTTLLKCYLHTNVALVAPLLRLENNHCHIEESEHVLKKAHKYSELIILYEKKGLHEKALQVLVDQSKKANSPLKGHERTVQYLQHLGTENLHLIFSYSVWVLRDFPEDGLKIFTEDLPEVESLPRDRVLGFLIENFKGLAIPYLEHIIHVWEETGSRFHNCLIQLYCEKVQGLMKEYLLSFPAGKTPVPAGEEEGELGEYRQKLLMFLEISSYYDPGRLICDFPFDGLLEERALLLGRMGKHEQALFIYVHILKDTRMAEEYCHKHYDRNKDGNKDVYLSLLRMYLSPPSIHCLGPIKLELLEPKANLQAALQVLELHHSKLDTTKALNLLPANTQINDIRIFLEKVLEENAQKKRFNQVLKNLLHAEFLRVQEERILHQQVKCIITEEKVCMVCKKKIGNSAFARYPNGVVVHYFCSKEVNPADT
UniProt Q9P253: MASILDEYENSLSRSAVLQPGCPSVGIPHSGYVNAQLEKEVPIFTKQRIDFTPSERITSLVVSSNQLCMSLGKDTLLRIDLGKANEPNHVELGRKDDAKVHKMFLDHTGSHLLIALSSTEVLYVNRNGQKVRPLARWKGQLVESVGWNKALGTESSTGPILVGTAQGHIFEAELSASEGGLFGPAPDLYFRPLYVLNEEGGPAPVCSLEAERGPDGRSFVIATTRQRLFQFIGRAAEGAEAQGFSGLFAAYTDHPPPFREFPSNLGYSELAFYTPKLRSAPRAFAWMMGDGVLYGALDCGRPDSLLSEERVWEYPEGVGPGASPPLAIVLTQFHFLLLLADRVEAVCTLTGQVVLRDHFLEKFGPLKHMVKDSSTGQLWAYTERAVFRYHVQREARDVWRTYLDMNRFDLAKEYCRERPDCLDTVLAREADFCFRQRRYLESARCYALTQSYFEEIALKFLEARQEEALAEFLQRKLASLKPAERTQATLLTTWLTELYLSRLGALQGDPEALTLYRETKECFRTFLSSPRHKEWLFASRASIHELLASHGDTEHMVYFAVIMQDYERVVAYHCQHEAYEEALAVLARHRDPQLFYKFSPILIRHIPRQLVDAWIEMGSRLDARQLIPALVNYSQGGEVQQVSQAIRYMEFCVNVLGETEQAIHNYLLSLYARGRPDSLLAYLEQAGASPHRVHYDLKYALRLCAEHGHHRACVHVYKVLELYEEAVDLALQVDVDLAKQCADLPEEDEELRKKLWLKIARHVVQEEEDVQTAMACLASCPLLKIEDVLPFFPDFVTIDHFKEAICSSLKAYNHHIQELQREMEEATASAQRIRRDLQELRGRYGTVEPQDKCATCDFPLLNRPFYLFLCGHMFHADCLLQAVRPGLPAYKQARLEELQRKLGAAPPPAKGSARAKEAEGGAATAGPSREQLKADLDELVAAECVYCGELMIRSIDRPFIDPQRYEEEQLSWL
UniProt Q9BZH6: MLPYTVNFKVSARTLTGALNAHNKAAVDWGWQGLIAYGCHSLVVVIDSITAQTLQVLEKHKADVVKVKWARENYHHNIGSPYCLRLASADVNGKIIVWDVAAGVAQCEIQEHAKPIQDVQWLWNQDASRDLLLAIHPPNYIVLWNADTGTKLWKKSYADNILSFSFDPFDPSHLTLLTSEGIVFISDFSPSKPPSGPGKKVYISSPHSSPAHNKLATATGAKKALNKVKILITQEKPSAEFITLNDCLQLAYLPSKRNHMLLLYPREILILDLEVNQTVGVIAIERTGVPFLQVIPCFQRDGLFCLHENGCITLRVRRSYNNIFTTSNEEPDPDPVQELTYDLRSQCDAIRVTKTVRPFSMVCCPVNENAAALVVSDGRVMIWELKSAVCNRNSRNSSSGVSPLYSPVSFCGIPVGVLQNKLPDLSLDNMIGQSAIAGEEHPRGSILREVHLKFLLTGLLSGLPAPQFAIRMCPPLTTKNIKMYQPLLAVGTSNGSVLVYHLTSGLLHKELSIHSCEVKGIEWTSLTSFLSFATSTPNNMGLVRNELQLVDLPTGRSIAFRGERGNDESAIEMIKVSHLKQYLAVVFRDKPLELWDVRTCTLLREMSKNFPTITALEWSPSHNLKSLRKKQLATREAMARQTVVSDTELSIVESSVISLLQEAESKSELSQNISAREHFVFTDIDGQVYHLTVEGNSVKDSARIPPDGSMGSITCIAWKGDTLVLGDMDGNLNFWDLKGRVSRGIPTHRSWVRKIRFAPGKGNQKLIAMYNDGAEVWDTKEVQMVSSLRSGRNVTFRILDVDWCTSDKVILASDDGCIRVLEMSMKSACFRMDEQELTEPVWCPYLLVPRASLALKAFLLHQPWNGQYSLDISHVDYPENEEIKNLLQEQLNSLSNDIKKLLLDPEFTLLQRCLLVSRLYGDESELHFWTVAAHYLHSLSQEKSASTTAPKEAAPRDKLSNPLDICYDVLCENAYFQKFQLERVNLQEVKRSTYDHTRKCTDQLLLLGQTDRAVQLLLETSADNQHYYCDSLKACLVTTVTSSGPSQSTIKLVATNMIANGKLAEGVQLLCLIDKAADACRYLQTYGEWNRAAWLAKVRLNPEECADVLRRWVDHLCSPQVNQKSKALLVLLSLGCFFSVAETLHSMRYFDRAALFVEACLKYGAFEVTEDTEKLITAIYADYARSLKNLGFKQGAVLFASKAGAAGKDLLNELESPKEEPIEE
UniProt Q9UEU0: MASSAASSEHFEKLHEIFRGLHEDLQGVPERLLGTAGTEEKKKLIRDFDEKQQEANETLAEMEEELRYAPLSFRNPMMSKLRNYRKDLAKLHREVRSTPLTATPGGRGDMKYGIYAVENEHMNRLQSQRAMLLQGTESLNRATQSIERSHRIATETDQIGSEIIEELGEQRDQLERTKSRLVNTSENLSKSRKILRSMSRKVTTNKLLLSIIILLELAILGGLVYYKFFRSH
UniProt A3KMH1: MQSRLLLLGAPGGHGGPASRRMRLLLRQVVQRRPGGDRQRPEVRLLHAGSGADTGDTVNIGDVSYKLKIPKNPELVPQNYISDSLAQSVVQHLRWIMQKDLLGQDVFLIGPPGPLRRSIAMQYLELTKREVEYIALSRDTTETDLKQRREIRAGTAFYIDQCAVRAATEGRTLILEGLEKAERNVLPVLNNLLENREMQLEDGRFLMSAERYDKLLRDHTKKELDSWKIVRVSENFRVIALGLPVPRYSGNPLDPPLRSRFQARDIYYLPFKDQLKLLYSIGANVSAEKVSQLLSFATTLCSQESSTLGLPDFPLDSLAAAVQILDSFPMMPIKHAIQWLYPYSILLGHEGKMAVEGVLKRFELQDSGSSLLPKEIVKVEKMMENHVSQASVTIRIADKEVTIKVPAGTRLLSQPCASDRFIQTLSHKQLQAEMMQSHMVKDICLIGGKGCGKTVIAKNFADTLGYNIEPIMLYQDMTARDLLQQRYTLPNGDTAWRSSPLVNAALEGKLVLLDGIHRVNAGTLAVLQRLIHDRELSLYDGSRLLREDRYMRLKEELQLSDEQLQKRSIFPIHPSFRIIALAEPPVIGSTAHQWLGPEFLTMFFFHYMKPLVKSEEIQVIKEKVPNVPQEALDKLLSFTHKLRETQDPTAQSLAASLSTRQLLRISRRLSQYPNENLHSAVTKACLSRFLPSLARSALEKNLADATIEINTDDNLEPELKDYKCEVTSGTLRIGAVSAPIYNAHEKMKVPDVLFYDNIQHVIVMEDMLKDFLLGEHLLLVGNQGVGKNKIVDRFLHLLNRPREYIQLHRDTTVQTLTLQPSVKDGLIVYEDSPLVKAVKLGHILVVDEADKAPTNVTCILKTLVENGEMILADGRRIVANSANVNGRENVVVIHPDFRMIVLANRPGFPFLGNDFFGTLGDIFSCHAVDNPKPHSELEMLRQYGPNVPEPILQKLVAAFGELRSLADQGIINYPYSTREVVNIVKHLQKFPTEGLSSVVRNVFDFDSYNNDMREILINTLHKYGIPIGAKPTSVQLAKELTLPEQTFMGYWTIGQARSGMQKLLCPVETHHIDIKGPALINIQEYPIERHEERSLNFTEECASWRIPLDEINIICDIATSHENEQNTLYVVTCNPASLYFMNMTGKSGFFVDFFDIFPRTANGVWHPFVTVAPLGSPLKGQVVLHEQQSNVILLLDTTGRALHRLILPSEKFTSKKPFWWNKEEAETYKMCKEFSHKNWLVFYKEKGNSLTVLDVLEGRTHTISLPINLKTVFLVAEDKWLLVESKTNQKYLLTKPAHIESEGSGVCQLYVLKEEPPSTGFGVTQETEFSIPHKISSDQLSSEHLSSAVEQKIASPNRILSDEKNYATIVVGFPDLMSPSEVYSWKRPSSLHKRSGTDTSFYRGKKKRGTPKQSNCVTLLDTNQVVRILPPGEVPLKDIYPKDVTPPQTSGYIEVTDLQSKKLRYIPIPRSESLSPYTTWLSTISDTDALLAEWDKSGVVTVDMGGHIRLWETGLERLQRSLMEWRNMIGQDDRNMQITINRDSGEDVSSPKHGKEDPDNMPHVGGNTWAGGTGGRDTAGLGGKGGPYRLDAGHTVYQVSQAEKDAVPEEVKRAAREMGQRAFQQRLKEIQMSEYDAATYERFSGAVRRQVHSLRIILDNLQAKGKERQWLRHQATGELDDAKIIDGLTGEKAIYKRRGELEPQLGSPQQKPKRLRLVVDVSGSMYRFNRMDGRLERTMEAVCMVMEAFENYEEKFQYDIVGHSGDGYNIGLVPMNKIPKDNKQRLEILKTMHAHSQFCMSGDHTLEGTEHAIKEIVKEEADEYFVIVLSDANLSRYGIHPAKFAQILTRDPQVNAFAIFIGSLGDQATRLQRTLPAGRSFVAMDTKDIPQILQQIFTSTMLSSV

[2] = compound: C[C@@H](Oc1cc(-c2cnn(C3CCNCC3)c2)cnc1N)c1c(Cl)ccc(F)c1Cl [crizotinib]
Summary of the method: as §1

[3] = compound: C[C@@H]1COCCN1C2=NC(=NC(=C2)C3(CC3)S(=O)(=O)C)C4=C5C=CNC5=CC=C4
Summary of the method: as §1

[4] = compound: C[C@H](C1=CC=C(C=C1)C(=O)NC2=C3C=CNC3=NC=C2)N
Summary of the method: as §1

[5] = compound: C[C@H](Nc1ncnc2nc[nH]c12)c1cc2cccc(Cl)c2c(=O)n1-c1ccccc1 [duvelisib]
Summary of the method: as §1

[6] = compound: Cc1cc(Nc2cc(CN3CCOCC3)c3nc(C)c(Cc4ccc(Cl)cc4F)n3n2)n[nH]1 [gandotinib]
Summary of the method: as §1

[7] = compound: Cc1cc(Nc2cc(N3CCN(C)CC3)nc(Sc3ccc(NC(=O)C4CC4)cc3)n2)n[nH]1 [tozasertib]
Summary of the method: as §1

[8] = compound: Cc1cc(SCc2sc(-c3ccc(C(F)(F)F)cc3)nc2C)ccc1OCC(=O)O
Summary of the method: as §1

[9] = compound: Cc1ccc(-n2nc(C(C)(C)C)cc2NC(=O)Nc2ccc(OCCN3CCOCC3)c3ccccc23)cc1 [doramapimod]
Summary of the method: as §1

[10] = compound: Cc1ccc(C(=O)N(CCCN)[C@@H](c2nc3cc(Cl)ccc3c(=O)n2Cc2ccccc2)C(C)C)cc1 [ispinesib]
Summary of the method: as §1

| Target | log2 fold change [1] | log2 fold change [2] | log2 fold change [3] | log2 fold change [4] | log2 fold change [5] | log2 fold change [6] | log2 fold change [7] | log2 fold change [8] | log2 fold change [9] | log2 fold change [10] |
| --- | --- | --- | --- | --- | --- | --- | --- | --- | --- | --- |
| WDR6 (UniProt Q9NNW5) | inactive: 0 | inactive: -0.035 | inactive: -0.02 | inactive: 0.055 | inactive: 0.002 | inactive: -0.038 | inactive: -0.039 | inactive: 0.048 | inactive: 0.014 | inactive: 0.032 |
| WASHC4 (UniProt Q2M389) | inactive: 0.018 | inactive: -0.176 | inactive: -0.14 | inactive: 0.06 | inactive: -0.056 | inactive: -0.088 | inactive: 0.016 | inactive: 0.099 | inactive: 0.018 | inactive: -0.172 |
| WDR48 (UniProt Q8TAF3) | inactive: -0.017 | inactive: 0.062 | inactive: 0.076 | inactive: 0.008 | inactive: 0.028 | inactive: -0.005 | inactive: -0.019 | inactive: -0.038 | inactive: -0.032 | inactive: 0.012 |
| WDR12 (UniProt Q9GZL7) | inactive: 0 | inactive: 0.079 | inactive: 0.039 | inactive: -0.026 | inactive: 0.065 | inactive: -0.016 | inactive: -0.014 | inactive: 0.005 | inactive: -0.019 | inactive: 0.032 |
| VWDE (UniProt Q8N2E2) | inactive: 0.016 | inactive: 0 | inactive: -0.036 | inactive: 0.064 | inactive: -0.078 | inactive: 0.086 | inactive: 0.085 | inactive: 0.071 | inactive: 0.051 | inactive: 0.006 |
| WRB (UniProt O00258) | inactive: -0.031 | inactive: 0.057 | inactive: 0.036 | inactive: -0.028 |  | inactive: -0.053 |  | inactive: 0.067 | inactive: 0.015 | inactive: 0.029 |
| VRK1 (UniProt Q99986) | inactive: 0.055 | inactive: -0.11 | inactive: 0.126 | active: 0.444 |  | inactive: -0.067 |  | inactive: 0.161 | inactive: -0.075 | inactive: -0.077 |
| WNK1 isoform 7 (UniProt Q9H4A3) | inactive: 0.022 | inactive: -0.061 | inactive: -0.027 | inactive: 0.03 |  | inactive: -0.032 |  | inactive: -0.018 | inactive: 0.001 | inactive: -0.044 |
| WDR37 isoform 2 (UniProt Q9Y2I8) | inactive: 0.026 | inactive: 0 | inactive: 0.041 | inactive: 0.11 |  | inactive: 0.069 |  | inactive: 0.15 | inactive: 0.02 | inactive: 0.055 |
| WBP4 (UniProt O75554) | inactive: -0.032 | inactive: 0.059 | inactive: 0.004 | inactive: -0.015 |  | inactive: -0.022 |  | inactive: 0.01 | inactive: 0.018 | inactive: -0.044 |
| WEE1 (UniProt P30291) | inactive: -0.3 | inactive: -0.025 | active: -1.07 | inactive: 0.094 |  | inactive: 0.247 |  | inactive: -0.049 | inactive: 0.026 | inactive: 0.046 |
| WASHC5 (UniProt Q12768) | inactive: -0.023 | inactive: -0.133 | inactive: -0.068 | inactive: 0.053 |  | inactive: -0.002 |  | inactive: 0.032 | inactive: 0.073 | inactive: -0.093 |
| WASHC2A (UniProt Q641Q2) | inactive: 0.025 | active: -0.28 | inactive: -0.033 | inactive: 0.137 |  | inactive: 0.012 |  | inactive: -0.047 | inactive: 0.062 | inactive: -0.229 |
| VPS39 (UniProt Q96JC1) | inactive: -0.037 | active: -0.239 | inactive: 0.026 | inactive: 0.021 |  | inactive: -0.126 |  | inactive: 0.025 | inactive: 0.008 | inactive: -0.187 |
| VPS18 (UniProt Q9P253) | inactive: -0.008 | inactive: -0.21 | inactive: -0.013 | inactive: 0.05 |  | inactive: -0.041 |  | inactive: 0.063 | inactive: -0.014 | inactive: -0.203 |
| VPS13B (UniProt Q7Z7G8) | inactive: 0.023 | inactive: 0.015 | inactive: 0.045 | inactive: -0.033 |  | inactive: -0.062 |  | inactive: 0.015 | inactive: 0.028 | inactive: -0.134 |

| Target | log2 fold change [1] | log2 fold change [2] | log2 fold change [3] | log2 fold change [4] | log2 fold change [5] | log2 fold change [6] | log2 fold change [7] | log2 fold change [8] | log2 fold change [9] | log2 fold change [10] |
| --- | --- | --- | --- | --- | --- | --- | --- | --- | --- | --- |
| VPS33B (UniProt Q9H267) | inactive: 0.05 | inactive: -0.182 | inactive: -0.022 | inactive: 0.063 |  | inactive: -0.114 |  | inactive: 0.085 | inactive: -0.01 | inactive: -0.149 |
| WASH2P (UniProt Q6VEQ5) | inactive: -0.002 | active: -0.321 | inactive: -0.017 | inactive: 0.021 |  | inactive: -0.03 |  | inactive: -0.038 | inactive: 0.041 | active: -0.358 |
| WDR11 (UniProt Q9BZH6) | inactive: -0.064 | inactive: -0.007 | inactive: 0.111 | inactive: 0.059 |  | inactive: -0.291 |  | inactive: -0.051 | inactive: 0.056 | inactive: -0.133 |
| VTI1B (UniProt Q9UEU0) | inactive: 0.022 | inactive: -0.089 | inactive: 0.025 | inactive: 0.032 |  | inactive: 0.039 |  | inactive: -0.077 | inactive: 0.084 | active: -0.41 |
| WDR62 isoform 4 (UniProt O43379) | inactive: 0.064 | inactive: -0.137 | inactive: 0.07 | inactive: -0.064 |  | active: -0.204 |  | inactive: -0.016 | inactive: -0.057 | inactive: -0.02 |
| WDR61 (UniProt Q9GZS3) | inactive: 0.043 | inactive: -0.044 | inactive: 0.071 | inactive: -0.056 |  | inactive: -0.099 |  | inactive: -0.017 | inactive: -0.004 | inactive: -0.028 |
| WAPL isoform 3 (UniProt Q7Z5K2) | inactive: 0.052 | inactive: -0.23 | inactive: 0.18 | inactive: -0.142 |  | inactive: -0.199 |  | inactive: -0.006 | inactive: 0.017 | inactive: -0.026 |
| VPS28 (UniProt Q9UK41) | inactive: 0.01 | inactive: 0.051 | inactive: 0.063 | inactive: -0.091 |  | inactive: -0.055 |  | inactive: 0.096 | inactive: 0.035 | inactive: -0.041 |
| WDCP (UniProt Q9H6R7) | inactive: -0.018 | inactive: 0.079 | inactive: -0.046 | inactive: -0.024 |  | inactive: 0.047 |  | inactive: 0.084 | inactive: 0.005 | inactive: 0.032 |
| VWA8 (UniProt A3KMH1) | inactive: 0.01 | inactive: -0.058 | inactive: 0.093 | inactive: 0.025 |  | inactive: -0.038 |  | inactive: 0.094 | inactive: -0.041 | inactive: -0.221 |
| VPS37A (UniProt Q8NEZ2) | inactive: 0.035 | inactive: -0.146 | inactive: 0.092 | inactive: -0.084 |  | inactive: -0.292 |  | inactive: 0.206 | inactive: -0.017 | inactive: 0 |
| VPS16 (UniProt Q9H269) | inactive: 0.035 | inactive: -0.105 | inactive: -0.09 | inactive: 0.08 |  | inactive: -0.163 |  | inactive: 0.092 | inactive: 0.085 | inactive: -0.239 |
| WDR7 (UniProt Q9Y4E6) | inactive: 0.025 | inactive: 0.024 | inactive: -0.029 | inactive: -0.096 |  | inactive: -0.009 |  | inactive: 0.08 | inactive: 0.065 | inactive: -0.075 |
| VPS41 (UniProt P49754) | inactive: 0.003 | inactive: -0.213 | inactive: -0.009 | inactive: 0.03 |  | inactive: -0.117 |  | inactive: 0.046 | inactive: 0.034 | inactive: -0.138 |
| VPS8 (UniProt Q8N3P4) | inactive: 0.024 | inactive: -0.12 | inactive: 0.016 | inactive: 0.127 |  | inactive: -0.097 |  | inactive: 0.083 | inactive: 0 | inactive: -0.154 |
| VPS53 isoform 4 (UniProt Q5VIR6) | inactive: 0.087 | inactive: -0.095 | inactive: -0.004 | inactive: 0.006 |  | inactive: 0 |  | inactive: 0.059 | inactive: 0.036 | inactive: -0.113 |

7 neighbouring records out of the list so far:

| Target | log2 fold change [1] | log2 fold change [2] | log2 fold change [3] | log2 fold change [4] | log2 fold change [5] | log2 fold change [6] | log2 fold change [7] | log2 fold change [8] | log2 fold change [9] | log2 fold change [10] |
| --- | --- | --- | --- | --- | --- | --- | --- | --- | --- | --- |
| VPS33B (UniProt Q9H267) | inactive: 0.05 | inactive: -0.182 | inactive: -0.022 | inactive: 0.063 |  | inactive: -0.114 |  | inactive: 0.085 | inactive: -0.01 | inactive: -0.149 |
| WASH2P (UniProt Q6VEQ5) | inactive: -0.002 | active: -0.321 | inactive: -0.017 | inactive: 0.021 |  | inactive: -0.03 |  | inactive: -0.038 | inactive: 0.041 | active: -0.358 |
| WDR11 (UniProt Q9BZH6) | inactive: -0.064 | inactive: -0.007 | inactive: 0.111 | inactive: 0.059 |  | inactive: -0.291 |  | inactive: -0.051 | inactive: 0.056 | inactive: -0.133 |
| VTI1B (UniProt Q9UEU0) | inactive: 0.022 | inactive: -0.089 | inactive: 0.025 | inactive: 0.032 |  | inactive: 0.039 |  | inactive: -0.077 | inactive: 0.084 | active: -0.41 |
| WDR62 isoform 4 (UniProt O43379) | inactive: 0.064 | inactive: -0.137 | inactive: 0.07 | inactive: -0.064 |  | active: -0.204 |  | inactive: -0.016 | inactive: -0.057 | inactive: -0.02 |
| WDR61 (UniProt Q9GZS3) | inactive: 0.043 | inactive: -0.044 | inactive: 0.071 | inactive: -0.056 |  | inactive: -0.099 |  | inactive: -0.017 | inactive: -0.004 | inactive: -0.028 |
| WAPL isoform 3 (UniProt Q7Z5K2) | inactive: 0.052 | inactive: -0.23 | inactive: 0.18 | inactive: -0.142 |  | inactive: -0.199 |  | inactive: -0.006 | inactive: 0.017 | inactive: -0.026 |

Source: the supplement of paper PMC10849652
